Reference: PubChem BioAssay AID504793 (Drosophila RNAi Screening Center, 2011)

Screen: 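Knock-downs allowing continued mitosis even though DNA is damaged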 (primary screen)
Cells: Drosophila S2R+ cells
Knock-down reagent: long dsRNA against Drosophila genes, about 0.25 µg dsRNA per well
Time to read-out: 4 days of dsRNA, then 4 hours of drug before read-out
Conditions: doxorubicin 0.5 µM for 4 hours to cause double-strand breaks, in cells also given a low, harmless dose of dsRNA against nbs to sensitise the assay
Read-out: 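Per-well count of mitotic cells stained for phospho-histone H3 after doxorubicin exposure, used as mitotic index; counts are raw and not normalised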
Reading the numbers: mitotic cells: higher = more cells in mitosis, weaker G2 arrest
Active means: 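Genes are called active only when high mitotic counts were reproduced with independent dsRNAs and mitosis was checked for delay without damage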
Calls: active = confirmed in follow-up tests; inactive = not confirmed
The screen tested about 23,000 reagents; shown is a random part of those with a known target gene and a result. Over the whole deposit, 62 (0.27%) got an active call. 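Calls come from follow-up tests whose scores are not deposited, so confirmed genes may have low counts here; counts are not normalised per plate.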 Raw values vary from plate to plate and are shown uncorrected. A number with no mark means an inactive call. Reagents against one gene are numbered here. Reagent sequences are not shown.

Tpc1 #1: mitotic cells, replicate 1 = 4
Tpc1 #2: mitotic cells, replicate 1 = 6
Tpc1 #3: mitotic cells, replicate 1 = 5
Paf-AHalpha (Platelet-activating factor acetylhydrolase alpha): mitotic cells, replicate 1 = 13
Datp (Diadenosine tetraphosphatase): mitotic cells, replicate 1 = 9
sxe2 (sex-specific enzyme 2): mitotic cells, replicate 1 = 6
ben (bendless) #1: mitotic cells, replicate 1 = 7
ben (bendless) #2: mitotic cells, replicate 1 = 9
ben (bendless) #3: mitotic cells, replicate 1 = 10
CG15254 #1: mitotic cells, replicate 1 = 11
CG15254 #2: mitotic cells, replicate 1 = 4
CG15254 #3: mitotic cells, replicate 1 = 6
CG15576: mitotic cells, replicate 1 = 13
Plekhm1 (Pleckstrin homology and RUN domain containing M1): mitotic cells, replicate 1 = 8
